Results of single-concentration screens

Measurements from “University of Dundee, Small-Polar-MMV Screening Library” (2021), ChEMBL document CHEMBL3988442.

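Whole-cell growth test on Mycobacterium tuberculosis, read after 3 days in glucose-containing 7H9 medium; the read-out is not stated. Concentration: 50 µM. Higher reads as more growth inhibition (inferred: compounds with an IC50 in retests scored well above the rest). About 69,000 compounds were tested under these conditions; 1.1% (about 760) showed 50% or more at least once.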

Values are the deposited “Percent Effect”, in %. The record does not define 0% and 100%; most values in the screen are far below 50% and negative numbers occur (in some assays of this library far below -100). The compounds are a random part of those screened. Two or more numbers in one place are separate tests of the same structure; such repeats can differ widely.

{"smiles": "Fc1ccccc1-c1noc2c1CN(CC1CC1)CC2", "effect": "5.11 and 5.206"}
{"smiles": "FC(F)(F)COCCN1CCN(c2ccc3nncn3n2)CC1", "effect": 22.48}
{"smiles": "CC(C)(C)c1cc(=O)[nH]c(C2(N)CCCCC2)n1.Cl", "effect": "-23.2 and -0.1703"}
{"smiles": "O=C(c1[nH]nc2c1CCCC2)N1CCC(OCCN2CCCCC2)C1", "stereo": "stereo not drawn", "effect": -11.05}
{"smiles": "O=C(O)C(F)(F)F.[H][C@@]12CCN(c3ncc(F)cn3)[C@]1([H])CC[C@H](C(=O)NCCOC)O2", "effect": "-4.813 and -1.23"}
{"smiles": "COc1ccc(C(C)Nc2ncnc3c2NC(=O)CN3)cc1", "stereo": "stereo not drawn", "effect": -10.12}
{"smiles": "Cc1cc(N(C)C)nc(C2(C)CCCN2C(=O)c2cnccn2)n1", "stereo": "stereo not drawn", "effect": 28.81}
{"smiles": "CC(C(=O)N1CCCN(c2ccc(C#N)cc2)CC1)n1cccn1", "stereo": "stereo not drawn", "effect": 8.126}
{"smiles": "Cc1nn(C)c2nc(N(C)CCN(C)C)sc12", "effect": 41.72}
{"smiles": "Cc1ncnc2c1CCN(Cc1nccs1)CC2.O=C(O)C(F)(F)F", "effect": 11}
{"smiles": "CN(C(=O)CCc1ccncc1)C1CCCN(CCc2ccccc2)C1", "stereo": "stereo not drawn", "effect": "9.828 and 16.62"}
{"smiles": "CC(=O)Nc1nc(C(=O)NC(C)c2ccc(C#N)cc2)cs1", "stereo": "stereo not drawn", "effect": 14.33}
{"smiles": "Cc1n[nH]c(C)c1CCC(=O)N(C)Cc1cn[nH]c1-c1ccc(F)cc1", "effect": -5.161}
{"smiles": "CCCc1nc(C(=O)NC(COC)c2ccnn2C)cs1", "stereo": "stereo not drawn", "effect": 1.253}
{"smiles": "COC1(CNC(=O)CCCc2ccccc2)CCSC1", "stereo": "stereo not drawn", "effect": -8.419}
{"smiles": "CC(C)N(C)CCC(=O)N1CCCC(c2ccc(C(=O)O)cc2)C1", "stereo": "stereo not drawn", "effect": -22.08}
{"smiles": "Cc1cnccc1NCCNC1CCN(CC(C)C)CC1", "effect": 13.85}
{"smiles": "[H][C@@]12COC[C@]1(C(=O)NCc1ccccn1)CN(c1cc(OC)ncn1)C2", "effect": "-8.615 and -14.04"}
{"smiles": "O=C(O)C(F)(F)F.[H][C@@]12CN(Cc3csc(C)n3)C[C@]1([H])CN(C(=O)c1cnccn1)C2", "effect": -18.98}
{"smiles": "Cc1ccc(NCCCNC(=O)C2CCCN(Cc3ccco3)C2)nc1", "stereo": "stereo not drawn", "effect": -29.38}
{"smiles": "CC(C)Nc1cccc(C(=O)NCC(O)c2cccc(F)c2)c1", "stereo": "stereo not drawn", "effect": -10.37}
{"smiles": "CCc1ncc2c(n1)CN(Cc1nnc(C(C)C)o1)CC2", "effect": -5.396}
{"smiles": "CN(C)c1nccc(C2CCN(C(=O)CO)CC2)n1", "effect": -41.6}
{"smiles": "CC(C)(C)N1CCN(C(=O)c2cccnc2-n2cncn2)CC1", "effect": "-16.59 and 2.04"}
{"smiles": "O=C(O)C(F)(F)F.[H][C@]12CCN(C(=O)CC)CC[C@@]1([H])S(=O)(=O)CCN2Cc1cccc(C)n1", "effect": "-8.551 and 1.296"}
{"smiles": "CC(O)C1CCN(Cc2cnc3c(-c4ccccc4)cnn3c2)CC1", "stereo": "stereo not drawn", "effect": "44.93 and 2.428"}
{"smiles": "Cc1ncnc2c1CCN(C(=O)N(C)C)CC2", "effect": -26.87}
{"smiles": "CCC(CO)Nc1nc(C(F)F)nc2ccccc12", "stereo": "stereo not drawn", "effect": "-7.255 and 6.63"}
{"smiles": "Cc1ccccc1Cn1nnc2cc3c(cc2c1=O)OCCO3", "effect": -7.333}
{"smiles": "CN(C(=O)C(c1c(F)cccc1Cl)N(C)C)c1nccs1", "stereo": "stereo not drawn", "effect": 7.63}
{"smiles": "CC1Oc2c(cccc2C(=O)N2CCN(CC(C)(C)O)CC2)NC1=O", "stereo": "stereo not drawn", "effect": "4.62 and 0.1381"}
{"smiles": "Cc1nc2c(c(NC3CC3)n1)CCN(C(=O)CCO)CC2.O=C(O)C(F)(F)F", "effect": 22.37}
{"smiles": "CCN1CCN(c2ncc3c(n2)CN(c2cnn(CC)c2)C3=O)CC1", "effect": 24.82}
{"smiles": "CC(C)CN1CC2(CCN(C(=O)C(O)c3cccc(Cl)c3)CC2)CC1=O", "stereo": "stereo not drawn", "effect": -28.39}
{"smiles": "CC(Nc1ccc(Oc2cccc(C#N)c2)cc1)C(=O)NC1CC1", "stereo": "stereo not drawn", "effect": 10.72}
{"smiles": "CN(C)CCO[C@H]1C[C@@H](O)C12CCN(c1nccc3ccccc13)CC2", "effect": -2.027}
{"smiles": "Cn1c(Cn2ccnc2)nnc1C1CCN(C(=O)c2ccncc2)CC1", "effect": -10.24}
{"smiles": "CN(Cc1ccccc1)C1(C(=O)O)Cc2ccccc2C1", "effect": -12.96}
{"smiles": "[H][C@]12CCCN(C(=O)c3ccsc3)[C@@]1([H])CN(C(=O)c1ccco1)C2", "effect": 21.17}
{"smiles": "Cc1cc(CNC(=O)NC(C)c2ccccc2)no1", "stereo": "stereo not drawn", "effect": "-11.43 and 10.48"}
{"smiles": "CCc1ncncc1C(=O)N1CCCN(Cc2ccc(C)cc2)CC1", "effect": -34.84}
{"smiles": "CN1CCN(Cc2ccccc2Oc2nccc3occc23)CC1", "effect": -22.1}